The exact form of at least one protein or probe is not confirmed. For part of these data: A negative result means that nothing was seen under these conditions. For part of these data: The comparison behind a weaker result is the experiment's own reference, which may not be listed here. For part of these data: At least one verdict rests on a figure or table, not on a statement of the authors. For part of these data: Tags and fusion partners may be left off the protein sequences shown.
Key:
Test in all cases: EMSA
[1] = system: T1, LhgR (Pseudomonas putida W619); conditions: EMSA: 10 mM Tris-HCl pH 7.4, 50 mM KCl, 0.5 mM EDTA, 10% glycerol, 1 mM DTT, 30 °C 30 min, gel 6% native PAGE at 4 °C
T1 sequence (looked up): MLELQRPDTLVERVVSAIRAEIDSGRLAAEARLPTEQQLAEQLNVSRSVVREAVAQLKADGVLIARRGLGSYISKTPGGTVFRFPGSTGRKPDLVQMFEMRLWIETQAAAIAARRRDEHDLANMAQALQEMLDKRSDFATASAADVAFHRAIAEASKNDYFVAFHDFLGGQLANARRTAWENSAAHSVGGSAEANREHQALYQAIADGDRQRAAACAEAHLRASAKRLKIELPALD

[2] = system: LHGFR0N3C (mTFP-LhgR-Venus) (Pseudomonas putida W619); conditions: EMSA: 10 mM Tris-HCl pH 7.4, 50 mM KCl, 0.5 mM EDTA, 10% glycerol, 1 mM DTT, 30 °C 30 min, 10 nM DNA; gel 6% native PAGE at 4 °C; recombinant protein; probe letters rebuilt from the primers and the genome
[3] = system: LHGFR0N7C (mTFP-LhgR-Venus) (Pseudomonas putida W619); conditions: EMSA: 10 mM Tris-HCl pH 7.4, 50 mM KCl, 0.5 mM EDTA, 10% glycerol, 1 mM DTT, 30 °C 30 min, 10 nM DNA; gel 6% native PAGE at 4 °C; recombinant protein; probe letters rebuilt from the primers and the genome

Sequence | binding result ([1]; L-2-HG, 10 nM DNA, recombinant protein, residues 1-236, probe letters rebuilt from the primers and the genome) | binding result ([1]; no ligand, 10 nM DNA, recombinant …, residues 1-236, probe letters rebuilt from the primers and the genome) | binding result [2] | binding result [3] | binding result ([1]; 50 mM 2-KG, no release, 10 nM DNA, recombinant protein, residues 1-236, probe letters rebuilt from the primers and the genome) | binding result ([1]; 50 mM 5-aminovalerate, no release, 10 nM DNA, recombinant protein, residues 1-236, probe letters rebuilt from the primers and the genome) | binding result ([1]; 50 mM D-2-HG, no release, 10 nM DNA, recombinant protein, residues 1-236, probe letters rebuilt from the primers and the genome) | binding result ([1]; 50 mM L-2-HG, LhgR released from F1 (60 nM LhgR, 10 nM DNA), recombinant protein, residues 1-236, probe letters rebuilt from the primers and the genome) | binding result ([1]; 50 mM L-lysine, no release, 10 nM DNA, recombinant protein, residues 1-236, probe letters rebuilt from the primers and the genome) | binding result ([1]; 50 mM glutarate, no release, 10 nM DNA, recombinant protein, residues 1-236, probe letters rebuilt from the primers and the genome) | binding result ([1]; 50 mM succinate, no release, 10 nM DNA, recombinant protein, residues 1-236, probe letters rebuilt from the primers and the genome) | binding result ([1]; no ligand, complete shift at 8-fold molar excess (10 nM DNA), recombinant protein, residues 1-236, probe letters rebuilt from the primers and the genome)
AAGTCTGCCTGACGCGGCCGTCCAACCGCGGACCGGTGGCTTCTCTGCGCGAGACGGCTCACCGGTGCGAGGGCCATGCCTGGCAACGCACACCTGATCGAAACGATTGACATCCCATACCCGCCACAGGCATTGTCTGACAACCTGACCACTAGGCAATCGCTTCC (double strand) [F2 (lhgR promoter)] | binds more weakly | binds |  |  |  |  |  |  |  |  |  | 
TACCCAGAGCTTGCTGCGACCCGGCAAGCTCTTTTTTTTTACGCATCCATTAGTCTGACAACCTGATAAGCAGATCCACCGACAAGAATCACAAGGTACCCCTGC (double strand) [F1 (lhgO promoter)] |  |  | no binding | no binding | binds | binds | binds | binds more weakly | binds | binds | binds | binds

Reference: article PMC8206213, “An L-2-hydroxyglutarate biosensor based on specific transcriptional regulator LhgR” (Nature Communications, 2021)
